Laboratory results from publication PMC7862700.
This is a selection; strong and weak results do not stand in their true shares. At the low end of the ranking, values are background and their order means little.

Columns and labels:
Assay in all cases: DAPPL (digital affinity profiling via proximity ligation, sequencing)
Conditions in all cases: 10 mM Tris-HCl pH 7.5, 50 mM NaCl, 1 mM DTT, 4% glycerol, room temperature, 30 min; GST-TFs on glutathione beads, 16-mer random dsDNA library, 0.1% …; high values mean tight binding; double strand, one strand shown; scale: fold enrichment (6-mer frequency, TF over GST control)
ELK1 = biological target: T1, ELK1 (UniProt P19419)
T1 sequence: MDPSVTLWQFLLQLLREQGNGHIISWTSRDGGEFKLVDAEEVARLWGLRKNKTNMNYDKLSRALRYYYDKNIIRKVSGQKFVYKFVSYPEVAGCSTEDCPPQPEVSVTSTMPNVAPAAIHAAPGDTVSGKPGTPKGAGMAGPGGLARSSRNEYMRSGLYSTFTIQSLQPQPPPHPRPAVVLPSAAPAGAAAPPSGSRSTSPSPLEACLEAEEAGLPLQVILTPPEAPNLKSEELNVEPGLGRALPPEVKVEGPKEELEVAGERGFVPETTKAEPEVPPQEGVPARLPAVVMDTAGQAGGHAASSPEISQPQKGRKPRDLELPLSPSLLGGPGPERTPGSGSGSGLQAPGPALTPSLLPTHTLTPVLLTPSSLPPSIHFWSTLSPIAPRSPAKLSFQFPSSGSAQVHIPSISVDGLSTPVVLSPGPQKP

ELK3 = biological target: T2, ELK3 (UniProt P41970)
T2 sequence: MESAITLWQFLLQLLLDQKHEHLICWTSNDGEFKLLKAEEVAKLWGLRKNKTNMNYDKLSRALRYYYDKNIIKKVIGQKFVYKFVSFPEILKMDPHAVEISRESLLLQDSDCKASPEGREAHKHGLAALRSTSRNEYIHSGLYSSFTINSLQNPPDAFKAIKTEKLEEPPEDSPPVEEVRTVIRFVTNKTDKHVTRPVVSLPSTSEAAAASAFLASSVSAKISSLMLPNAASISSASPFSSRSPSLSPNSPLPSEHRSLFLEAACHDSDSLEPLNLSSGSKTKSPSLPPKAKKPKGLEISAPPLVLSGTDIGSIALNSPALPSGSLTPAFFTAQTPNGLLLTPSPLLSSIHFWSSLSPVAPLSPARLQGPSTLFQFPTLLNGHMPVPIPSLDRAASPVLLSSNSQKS

SPIC = biological target: T3, SPIC (UniProt Q8N5J4)
T3 sequence: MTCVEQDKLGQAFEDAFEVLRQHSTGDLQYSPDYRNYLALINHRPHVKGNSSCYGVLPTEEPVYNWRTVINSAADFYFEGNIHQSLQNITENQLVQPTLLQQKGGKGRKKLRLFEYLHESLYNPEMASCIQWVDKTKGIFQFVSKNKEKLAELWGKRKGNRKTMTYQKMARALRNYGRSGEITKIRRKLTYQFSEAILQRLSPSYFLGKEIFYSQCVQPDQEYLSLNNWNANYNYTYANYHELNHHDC

ETS2 = biological target: T4, ETS2 (UniProt P15036)
T4 sequence: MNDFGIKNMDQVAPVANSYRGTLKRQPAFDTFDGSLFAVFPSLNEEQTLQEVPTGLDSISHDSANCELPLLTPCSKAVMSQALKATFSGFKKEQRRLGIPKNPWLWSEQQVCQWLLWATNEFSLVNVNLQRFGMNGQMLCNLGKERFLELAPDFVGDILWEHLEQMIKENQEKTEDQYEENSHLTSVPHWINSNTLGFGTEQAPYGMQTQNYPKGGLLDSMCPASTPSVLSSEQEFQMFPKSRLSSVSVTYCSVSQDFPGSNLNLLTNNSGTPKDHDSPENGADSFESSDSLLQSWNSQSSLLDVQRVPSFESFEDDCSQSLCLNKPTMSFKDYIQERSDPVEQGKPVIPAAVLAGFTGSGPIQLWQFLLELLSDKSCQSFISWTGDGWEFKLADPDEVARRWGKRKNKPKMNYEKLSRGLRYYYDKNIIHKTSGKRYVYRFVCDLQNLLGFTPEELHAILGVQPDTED

ETV3 = biological target: T5, ETV3 (UniProt P41162-2)
T5 sequence: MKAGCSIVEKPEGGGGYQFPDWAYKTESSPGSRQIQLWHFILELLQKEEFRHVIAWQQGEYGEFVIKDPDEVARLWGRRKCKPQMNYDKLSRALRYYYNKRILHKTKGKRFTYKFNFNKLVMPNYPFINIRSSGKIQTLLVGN

Sequence | binding signal (ELK1) | binding signal (ELK3) | binding signal (SPIC) | binding signal (ETS2) | binding signal (ETV3)
CGGAGT | 0.311 | 0.327 | 0.348 | 0.304 | 0.331
GGAGAG | 0.284 | 0.275 | 0.282 | 0.264 | 0.275
TAGGTG | 0.97 | 0.986 | 0.849 | 0.893 | 0.861
GGAGTT | 0.454 | 0.458 | 0.544 | 0.478 | 0.43
TGGGGG | 0.741 | 0.915 | 0.838 | 0.761 | 0.699
CACCGT | 0.714 | 0.663 | 0.669 | 0.654 | 0.631
GGTTCG | 0.78 | 0.655 | 0.928 | 0.681 | 0.748
GTGTGC | 0.952 | 0.891 | 0.97 | 0.873 | 0.828
AGTCAT | 0.566 | 0.593 | 0.567 | 0.574 | 0.566
CAGGTA | 0.848 | 0.683 | 0.814 | 0.739 | 0.855
GGTGCT | 0.957 | 0.849 | 0.837 | 0.907 | 0.894
GTGCGT | 0.634 | 0.631 | 0.503 | 0.657 | 0.582
GGCTGG | 0.795 | 0.716 | 0.803 | 0.792 | 0.8
GTGGGA | 0.604 | 0.571 | 0.646 | 0.595 | 0.532
GGTGCG | 0.627 | 0.579 | 0.455 | 0.653 | 0.576
TAGGAC | 0.864 | 0.867 | 0.811 | 0.929 | 0.905
GCATGT | 0.773 | 0.705 | 0.895 | 0.735 | 0.788
GATAGG | 0.806 | 0.874 | 0.893 | 0.855 | 0.893
GCGGCC | 0.843 | 0.63 | 0.72 | 0.726 | 0.776
GGGCAA | 0.837 | 0.92 | 0.705 | 0.908 | 0.792

Sequence | binding signal (ELK1) | binding signal (ELK3) | binding signal (SPIC) | binding signal (ETS2) | binding signal (ETV3)
GCTTGA | 0.909 | 0.799 | 0.922 | 0.886 | 0.857
ACCCAG | 0.714 | 0.709 | 0.679 | 0.691 | 0.687
CAACGT | 0.901 | 0.999 | 0.844 | 0.861 | 0.865
AGTAAG | 0.754 | 0.847 | 0.882 | 0.759 | 0.76
GACGAA | 0.78 | 0.877 | 0.802 | 0.877 | 0.772
GAGTGG | 0.563 | 0.56 | 0.465 | 0.626 | 0.571
GACACG | 0.711 | 0.678 | 0.65 | 0.729 | 0.686
CCGGGA | 0.528 | 0.498 | 0.596 | 0.495 | 0.521
GTGACG | 0.666 | 0.648 | 0.652 | 0.657 | 0.745
CAGTCT | 0.744 | 0.713 | 0.762 | 0.738 | 0.696
GGACGA | 0.56 | 0.649 | 0.617 | 0.59 | 0.638
ATAGGA | 0.767 | 0.841 | 0.854 | 0.823 | 0.878
TGGGGA | 0.841 | 0.718 | 0.915 | 0.79 | 0.785
AGTCCG | 0.554 | 0.569 | 0.581 | 0.568 | 0.648
CACGTG | 0.61 | 0.623 | 0.602 | 0.643 | 0.577
AGATAC | 0.882 | 0.813 | 1.05 | 0.885 | 0.936
GGGGCG | 0.611 | 0.627 | 0.594 | 0.673 | 0.572
GATCCG | 1.01 | 0.968 | 0.96 | 0.958 | 0.997
ACGGGA | 0.504 | 0.592 | 0.518 | 0.533 | 0.56
GCAAGG | 0.814 | 0.793 | 0.831 | 0.842 | 0.793

Sequence | binding signal (ELK1) | binding signal (ELK3) | binding signal (SPIC) | binding signal (ETS2) | binding signal (ETV3)
AGGGCC | 0.935 | 0.902 | 1.02 | 0.914 | 0.972
GGCGGT | 0.421 | 0.439 | 0.454 | 0.41 | 0.412
GGCGTA | 0.687 | 0.647 | 0.72 | 0.564 | 0.607
GACTAA | 0.924 | 0.946 | 0.911 | 0.912 | 0.864
GGGGGT | 0.559 | 0.597 | 0.599 | 0.514 | 0.538
GGACTG | 0.73 | 0.632 | 0.647 | 0.63 | 0.717
GGTTAG | 0.768 | 0.763 | 0.755 | 0.798 | 0.748
GAGCAT | 0.75 | 0.757 | 0.901 | 0.726 | 0.752
CTGTCG | 0.579 | 0.527 | 0.618 | 0.52 | 0.483
AGACCG | 0.48 | 0.505 | 0.478 | 0.448 | 0.445
GCGTAG | 0.738 | 0.716 | 0.724 | 0.741 | 0.756
GTCGCA | 0.833 | 0.645 | 0.739 | 0.75 | 0.718
ACGTGG | 0.557 | 0.502 | 0.676 | 0.614 | 0.628
AATCGG | 0.532 | 0.55 | 0.569 | 0.518 | 0.578
GTCGTT | 0.722 | 0.696 | 0.647 | 0.741 | 0.774
TGCCAG | 0.638 | 0.617 | 0.675 | 0.685 | 0.678
GCGCCA | 0.707 | 0.76 | 0.781 | 0.761 | 0.709
GGGGAT | 0.679 | 0.608 | 0.593 | 0.712 | 0.629
GGGTAG | 0.669 | 0.654 | 0.672 | 0.654 | 0.66
CCAGGA | 0.634 | 0.622 | 0.657 | 0.665 | 0.756

Single records, as listed above. Values in the order: binding signal (ELK1)	binding signal (ELK3)	binding signal (SPIC)	binding signal (ETS2)	binding signal (ETV3)
GCGCCA as listed: 0.707	0.76	0.781	0.761	0.709
ACGTGG as listed: 0.557	0.502	0.676	0.614	0.628
GTCGCA as listed: 0.833	0.645	0.739	0.75	0.718
